The list does not hold the whole screen: it covers a few groups of compounds. Other doses and runs of a compound may be missing. T/C is the treated group as % of the vehicle group. Some doses have a count of surviving animals in place of a T/C: the source holds a T/C of zero for them, seemingly a mark for toxic or unscored doses. Counts of survivors are from the toxicity check (mostly the fifth day) where no day follows; animals may have died later. Schedule codes are those of the source, read here as Q, the interval in days (D) or hours (H), X, the number of doses. For survival time, this PubChem deposit counts one and a half times the control or more as active, and values a quarter to a half above the control carry no call in these data; other NCI protocols may use other cut-offs. Marks such as (2×) stand for listed records that agree. Some entries were tested several times; their values stand side by side, smallest first. Some schedule codes hold Z or #, which are not explained here. Some T/C values are followed by the survivors on the day toxicity was checked, most often the fifth; where neither a count nor a note follows, no animal had died by that day.
System: L1210 leukemia ip in BDF1 mice, survival T/C
Experiment: NCI In Vivo Anticancer Drug Screen. Data for tumor model L1210 Leukemia (intraperitoneal) in B6D2F1 (BDF1) mice
Settings: T/C endpoint: mean survival time, higher T/C = longer survival

Which T/C (dose: 12.5 mg/kg/injection, schedule: Q01DX Z (ip), vehicle: methylcellulose (MC)) does the source give for `NC1CCCCC1.O=P(O)(NCCCO)N(CCCl)CCCl` here?
The T/C was 117 % of control.

What about the T/C (dose: 12.5 mg/kg/injection, schedule: Q01DX Z (ip), vehicle: saline) of the same compound?
The T/C was 114 % of control.

And the T/C (dose: 16.0 mg/kg/injection, schedule: Q03HX008 (ip), vehicle: saline)?
Its T/C is 110 % of control.

And the T/C (dose: 16.0 mg/kg/injection, schedule: Q03HX016 (ip), vehicle: saline)?
The T/C was 107 % of control.

What about the T/C (dose: 16.0 mg/kg/injection, schedule: Q03HX024 (ip), vehicle: saline) of the same compound?
The T/C was 119 % of control.

What about the T/C (dose: 25.0 mg/kg/injection, schedule: Q01DX Z (ip), vehicle: methylcellulose (MC)) of the same compound?
Its T/C is 126 % of control.

What about the T/C (dose: 25.0 mg/kg/injection, schedule: Q01DX Z (ip), vehicle: saline) of the same compound?
The T/C was 94 % of control.

And the T/C (dose: 31.0 mg/kg/injection, schedule: Q01DX009 (oral), vehicle: saline)?
Its T/C is 110 % of control.

And the T/C (dose: 32.0 mg/kg/injection, schedule: Q01DX005 (ip), vehicle: saline)?
The T/C was 111 and 114 % of control.

What about the T/C (dose: 32.0 mg/kg/injection, schedule: Q01DX009 (ip), vehicle: saline) of the same compound?
Its T/C is 119 % of control (2×).

What about the T/C (dose: 32.0 mg/kg/injection, schedule: Q01DX009 (sc), vehicle: saline) of the same compound?
Its T/C is 98 % of control.

What about the T/C (dose: 32.0 mg/kg/injection, schedule: Q03HX008 (ip), vehicle: saline) of the same compound?
The T/C was 120 % of control.

What about the T/C (dose: 32.0 mg/kg/injection, schedule: Q03HX016 (ip), vehicle: saline) of the same compound?
The T/C was 130 % of control.

What about the T/C (dose: 32.0 mg/kg/injection, schedule: Q03HX024 (ip), vehicle: saline) of the same compound?
Its T/C is 142 % of control.

What about the T/C (dose: 50.0 mg/kg/injection, schedule: Q01DX Z (ip), vehicle: saline) of the same compound?
The T/C was 104 % of control.

What about the T/C (dose: 62.5 mg/kg/injection, schedule: Q01DX001 (ip), vehicle: clinical formulation) of the same compound?
The T/C was 131 % of control.

What about the T/C (dose: 62.5 mg/kg/injection, schedule: Q01DX001 (ip), vehicle: saline) of the same compound?
Its T/C is 118 % of control.

What about the T/C (dose: 62.5 mg/kg/injection, schedule: Q01DX009 (oral), vehicle: saline) of the same compound?
Its T/C is 116 % of control.

What about the T/C (dose: 64.0 mg/kg/injection, schedule: Q01DX005 (ip), vehicle: saline) of the same compound?
The T/C was 128 and 134 % of control.

What about the T/C (dose: 64.0 mg/kg/injection, schedule: Q01DX009 (ip), vehicle: saline) of the same compound?
The T/C was 138 and 139 % of control.

What about the T/C (dose: 64.0 mg/kg/injection, schedule: Q01DX009 (oral), vehicle: saline) of the same compound?
The T/C was 111 % of control.

What about the T/C (dose: 64.0 mg/kg/injection, schedule: Q01DX009 (sc), vehicle: saline) of the same compound?
The T/C was 116 % of control.

And the T/C (dose: 64.0 mg/kg/injection, schedule: Q03HX008 (ip), vehicle: saline)?
The T/C was 145 % of control.

What about the T/C (dose: 64.0 mg/kg/injection, schedule: Q03HX016 (ip), vehicle: saline) of the same compound?
The T/C was 168 % of control.

And the T/C (dose: 64.0 mg/kg/injection, schedule: Q03HX024 (ip), vehicle: saline)?
The T/C was 207 % of control.

And the T/C (dose: 64.0 mg/kg/injection, schedule: Q04DX003 (ip), vehicle: saline)?
Its T/C is 119 % of control.

What about the T/C (dose: 64.0 mg/kg/injection, schedule: Q04DX003 (iv), vehicle: saline) of the same compound?
Its T/C is 104 % of control [9 of 10 alive].

What about the T/C (dose: 64.0 mg/kg/injection, schedule: Q## X003 (ip), vehicle: saline) of the same compound?
Its T/C is 120 % of control.

What about the T/C (dose: 64.0 mg/kg/injection, schedule: Q## X024 (ip), vehicle: saline) of the same compound?
The T/C was 104 % of control.

What about the T/C (dose: 100.0 mg/kg/injection, schedule: Q01DX Z (ip), vehicle: methylcellulose (MC)) of the same compound?
The T/C was 155 % of control.

And the T/C (dose: 100.0 mg/kg/injection, schedule: Q01DX Z (ip), vehicle: saline)?
Its T/C is 110 and 155 % of control [5 of 6 alive].

And the T/C (dose: 125.0 mg/kg/injection, schedule: Q01DX001 (ip), vehicle: clinical formulation)?
The T/C was 141 % of control.

And the T/C (dose: 125.0 mg/kg/injection, schedule: Q01DX001 (ip), vehicle: saline)?
The T/C was 136 % of control.

What about the T/C (dose: 125.0 mg/kg/injection, schedule: Q01DX009 (oral), vehicle: saline) of the same compound?
Its T/C is 118 % of control.

And the T/C (dose: 125.0 mg/kg/injection, schedule: Q01DX Z (ip), vehicle: saline)?
The T/C was 132 % of control.

And the T/C (dose: 128.0 mg/kg/injection, schedule: Q01DX001 (ip), vehicle: saline)?
The T/C was 120 and 127 % of control.

And the T/C (dose: 128.0 mg/kg/injection, schedule: Q01DX001 (iv), vehicle: saline)?
Its T/C is 100 % of control.

What about the T/C (dose: 128.0 mg/kg/injection, schedule: Q01DX001 (sc), vehicle: saline) of the same compound?
The T/C was 121 % of control.

What about the T/C (dose: 128.0 mg/kg/injection, schedule: Q01DX005 (ip), vehicle: saline) of the same compound?
The T/C was 169 and 214 % of control.

What about the T/C (dose: 128.0 mg/kg/injection, schedule: Q01DX009 (ip), vehicle: saline) of the same compound?
Its T/C is 175 and 213 % of control.

What about the T/C (dose: 128.0 mg/kg/injection, schedule: Q01DX009 (oral), vehicle: saline) of the same compound?
The T/C was 119 % of control.

And the T/C (dose: 128.0 mg/kg/injection, schedule: Q01DX009 (sc), vehicle: saline)?
The T/C was 118 % of control.

What about the survivor count (dose: 128.0 mg/kg/injection, schedule: Q03HX008 (ip), vehicle: saline) of the same compound?
Its survivor count is 1 of 10.

What about the survivor count (dose: 128.0 mg/kg/injection, schedule: Q03HX016 (ip), vehicle: saline) of the same compound?
Its survivor count is 4 of 10.

And the survivor count (dose: 128.0 mg/kg/injection, schedule: Q03HX024 (ip), vehicle: saline)?
Its survivor count is 4 of 10.

And the T/C (dose: 128.0 mg/kg/injection, schedule: Q04DX003 (ip), vehicle: saline)?
The T/C was 142 % of control.

What about the T/C (dose: 128.0 mg/kg/injection, schedule: Q04DX003 (iv), vehicle: saline) of the same compound?
The T/C was 105 % of control [9 of 10 alive].

What about the T/C (dose: 128.0 mg/kg/injection, schedule: Q08DX002 (ip), vehicle: saline) of the same compound?
Its T/C is 125 % of control.

And the T/C (dose: 128.0 mg/kg/injection, schedule: Q## X002 (ip), vehicle: saline)?
The T/C was 134 % of control.

And the T/C (dose: 128.0 mg/kg/injection, schedule: Q## X003 (ip), vehicle: saline)?
Its T/C is 135 % of control.

What about the T/C (dose: 128.0 mg/kg/injection, schedule: Q## X008 (ip), vehicle: saline) of the same compound?
The T/C was 112 % of control.

And the T/C (dose: 128.0 mg/kg/injection, schedule: Q## X016 (ip), vehicle: saline)?
The T/C was 110 % of control.

And the T/C (dose: 128.0 mg/kg/injection, schedule: Q## X024 (ip), vehicle: saline)?
The T/C was 117 % of control.

What about the T/C (dose: 150.0 mg/kg/injection, schedule: Q01DX Z (ip), vehicle: saline) of the same compound?
The T/C was 130 % of control.

What about the T/C (dose: 176.0 mg/kg/injection, schedule: Q01DX001 (ip), vehicle: saline) of the same compound?
The T/C was 159 % of control.

What about the T/C (dose: 200.0 mg/kg/injection, schedule: Q01DX Z (ip), vehicle: saline) of the same compound?
The T/C was 155 % of control.

And the T/C (dose: 225.0 mg/kg/injection, schedule: Q01DX Z (ip), vehicle: saline)?
The T/C was 229 % of control.

And the T/C (dose: 250.0 mg/kg/injection, schedule: Q01DX001 (ip), vehicle: clinical formulation)?
Its T/C is 141 % of control.

What about the T/C (dose: 250.0 mg/kg/injection, schedule: Q01DX001 (ip), vehicle: saline) of the same compound?
The T/C was 136 % of control.

And the T/C (dose: 250.0 mg/kg/injection, schedule: Q01DX009 (oral), vehicle: saline)?
The T/C was 146 % of control.

And the T/C (dose: 256.0 mg/kg/injection, schedule: Q01DX001 (ip), vehicle: saline)?
Its T/C is 150 and 160 % of control.

What about the T/C (dose: 256.0 mg/kg/injection, schedule: Q01DX001 (iv), vehicle: saline) of the same compound?
Its T/C is 114 % of control.

What about the T/C (dose: 256.0 mg/kg/injection, schedule: Q01DX001 (oral), vehicle: saline) of the same compound?
Its T/C is 106 % of control.

And the T/C (dose: 256.0 mg/kg/injection, schedule: Q01DX001 (sc), vehicle: saline)?
The T/C was 105 % of control.
